Experiments:
[1] = Coreflooding of fractured cores, vertical (Example 2); settings: core 1, 1H NMR
Description: Experimental Procedure for Coreflooding. […] The Indiana limestone cores have the common dimensions with a diameter of 0.0254 m and a length of 0.127 m. The cores were saturated with RB first and then oil, during which the core properties were measured, such as porosity, permeability, and water and oil saturations.
It includes an accumulator for crude oil, a pump, a Hassler-type core holder, a hydraulic manual pump to maintain the overburden pressure, a differential pressure gauge, cylinders, and an oven. After a core was placed in the core holder, oil was injected into the cores at 100 cm^3/h and 347 K until no water production was observed.
An artificial fracture was created along the longitudinal axis using an electric saw for each core (FIG. 20). By following the procedure of Mejia, Teflon spacers with 0.001 m in width and 0.127 m in length were placed along two edges of the fracture to maintain a fracture aperture. Then, the core halves were carefully put together with the Teflon spacers in the fracture, wrapped with a Teflon tube, and placed inside a vertically oriented coreholder.
FIG. 21 provides a schematic of the experimental setup for coreflooding. It consists of accumulators for crude oil, RB, and chemical solution (3-pentanone or surfactant), a pump, a Hassler-type core holder, a hydraulic manual pump to maintain the overburden pressure, a differential pressure gauge, cylinders, and an oven. […] After a fractured core was placed in the coreholder, the oven temperature was increased to reservoir temperature (347 K). Then, the core was flooded with crude oil to remove any gas inside the fracture and measure the fracture permeability using the flow rate of 900 cm^3/h. The overburden pressure was adjusted so that all cores used in this research had similar fracture apertures and fracture permeabilities.
Fracture permeabilities were calculated. The equation for flow between parallel plates b=(3πdke)^1/3 was used to estimate a fracture aperture, where b is the fracture aperture, d is the core diameter, and ke is the effective oil permeability of the fractured core. […] Af and Am are cross-sectional areas of the fracture and matrix, respectively. kf and km are permeabilities of the fracture and matrix, respectively.
The initial RB stage was at 6 cm^3/h for 1.5 pore volumes injected (PVI), then at 0.05 cm^3/h for 0.3-0.4 PVI, and at 6 cm^3/h until there was no oil production. After that, a chemical slug (3-pentanone or surfactant) was injected at 0.6 cm^3/h for 1.6 PVI. Finally, the chase RB was injected at 0.6 cm^3/h. […] However, it was terminated after 1.2 PVI of the chase RB for core 1 because of operational constraints.
The coreflood effluent was collected in plastic graduating cylinders at room temperature. To correct the oil recovery factor for 3-pentanone solubility in oil, the 3-pentanone concentration in recovered oil was measured by the proton nuclear magnetic resonance (H NMR) method for the chemical slug and chase RB flooding periods for core 1.

[2] = Spontaneous imbibition in Amott cells; settings: initial 1.1 wt % 3p in RB, 347 K, 1H NMR

CCC(=O)CC [3-pentanone]
3-pentanone concentration in recovered oil ([1]; time interval 2.58-2.77 PVI): 1.388 wt % | 3-pentanone concentration in recovered oil ([1]; time interval 2.77-3.01 PVI): 1.623 wt % | 3-pentanone concentration in recovered oil ([1]; time interval 3.01-3.24 PVI): 1.958 wt % | 3-pentanone concentration in recovered oil ([1]; time interval 3.24-3.47 PVI): 3.841 wt % | 3-pentanone concentration in recovered oil ([1]; time interval 3.85-4.00 PVI): 2.320 wt % | 3-pentanone concentration in recovered oil ([1]; time interval 4.00-4.27 PVI): 3.092 wt % | 3p concentration in the aqueous phase outside the core after the experiment [2]: 0.8 wt % | 3p concentration in the recovered oleic phase after the experiment [2]: 18.6 wt %
